These results are taken from the supplement of paper PMC10338343.

± gives the standard deviation. The list shows a part of the results. The uncertainty is large for many entries.

In the assay the test system is EfPiwi piRISC loaded with L1MC piRNA (26 nt). The assay can be described thus: pre-steady-state target cleavage rate (min^-1); guide: L1MC piRNA 5'p-UAACUAAAUACUAUGCAAGCUGUAGG; MIWI and MILI are mouse PIWI proteins and EfPiwi is from a freshwater sponge; tags in brackets are library labels; higher = faster piRNA-guided slicing of the target. The method, boiled down: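 Active affinity-purified piRISC carrying one synthetic guide (1 nM) was mixed with a transcribed, DNA-blocked target RNA library […] in HEPES–potassium acetate buffer at 33 °C for 0–8 or 0–960 min, with or without 500 nM GTSF1 partner protein. Uncleaved targets were then sequenced and normalised to depth and to weakly complementary targets. Three trials were pooled, and k3 was capped at 0.0001 min^-1. A burst-and-steady-state fit was applied to obtain the pre-steady-state cleavage rate.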

Setting [1] is: auxiliary factor: 500 nM Ephydatia muelleri Gtsf1.
Where [2] appears, read: auxiliary factor: none (no Gtsf1).

For UCCUGGAUGAGCUUGGAUAGUAUUUUGUUA, the “pre-steady-state target cleavage rate” value under setting [1] is 0.00108 ± 0.0062 and the “pre-steady-state target cleavage rate” value under setting [2] worked out at 0.000947 ± 0.0099.
For the sequence UCCUGGUACAGCUUGCUAGUAUUUAGUUA, the “pre-steady-state target cleavage rate” value is 0.00174 ± 0.0061 under setting [1] and 0.00122 ± 0.0072 under setting [2].
Taken in the same sequence, the figures for UCCUGGAACAGCUUGCAUAGUAGUUUAGUUA were 0.0047 ± 0.0024 and 0.000654 ± 0.016.
Taken in the same sequence, the figures for UCCUGGAUGAGAUUGCAUAGUAUUUAGUUA were 0.00463 ± 0.0025 and 0.000748 ± 0.013.
UCCUGGAUGUCGAUGCAUUGUAAUUAGUUA: the “pre-steady-state target cleavage rate” value amounted to 0.000671 ± 0.0062 under setting [1] and 0.000255 ± 0.024 under setting [2].
Taken in the same sequence, the figures for UCCUGGAUGAGCUUGCAUAGUAUUUACAUA were 0.00323 ± 0.0028 and 0.00036 ± 0.024.
For UCCUGGUACAGCUUGCAAUGUAUUUAGUUA the same measures were 0.000641 ± 0.0075 and 0.000683 ± 0.015.
Taken in the same sequence, the figures for UCCUGGAUCAGCUUGCAUAGAUUUUAGUUA were 0.00193 ± 0.0042 and 0.000486 ± 0.017.
With UCCUGGUACAGCUAGCAUAGUAUUUAGUAA, the “pre-steady-state target cleavage rate” value is 0.00365 ± 0.0021 under setting [1] and 0.000741 ± 0.011 under setting [2].
Taken in the same sequence, the figures for UCCUGGUUCAGCAUGCAUAGUAUUUAGUUA were 0.0347 ± 0.0092 and 0.00336 ± 0.005.
For UCCUGGAUGUGCUUGCAUAGAAUUUAGUUA the same measures were 0.00167 ± 0.0021 and 0.000669 ± 0.013.
Take UCCUGGUACAGCUUGCAUCGUAUUUAGUUA: the “pre-steady-state target cleavage rate” value is 0.00642 ± 0.0025 under setting [1] and 0.00122 ± 0.0094 under setting [2].
For UCCUGGAUGAGCUUGCAAAGUAUUAAGUUA the same measures were 0.00202 ± 0.0036 and 0.00043 ± 0.021.
With UCCUGGUAGAGCUUGCAUAGUAUUUUGUUA, the “pre-steady-state target cleavage rate” value runs as follows: under setting [1], 0.00292 ± 0.0029; under setting [2], 0.000363 ± 0.033.
As for UCCUGGAUGAGCUUGCAUAGUUUUUUGUUA, the “pre-steady-state target cleavage rate” value is, setting by setting: under setting [1], 0.00102 ± 0.005; under setting [2], 0.000409 ± 0.026.
For the sequence UCCUGGAUGUGCUUGCAUAGUAUUGUAGUUA, the “pre-steady-state target cleavage rate” value was determined as 0.00579 ± 0.0041 under setting [1] and 0.000484 ± 0.032 under setting [2].
For UCCUGGAACACGCUUGCAUAGUAUUUAGUUA the same measures were 0.0331 ± 0.011 and 0.000745 ± 0.013.
As to UCCUGGAUGUCGAACGAUAGUAUUUAGUGA, the “pre-steady-state target cleavage rate” value by setting is: under setting [1], 0.000341 ± 0.017; under setting [2], 0.000117 ± 0.034.
For UCCUGGAUGAGCUUGCAUAGUAUUAUAGUUA the same measures were 0.0159 ± 0.0056 and 0.0249 ± 0.011.
For UCCUGGAUGAGCUUGGAUAGUUUUUAGUUA the same measures were 0.0011 ± 0.0031 and 0.00091 ± 0.011.
For UCCUGGAUGAGCUUGCAUAGAUUUUAGUUA the same measures were 0.00056 ± 0.0082 and 0.000624 ± 0.0099.
Turning to UCCUGGUACACCUUGCAAAGUAUUUAGUUA, the “pre-steady-state target cleavage rate” value worked out at 0.00239 ± 0.0034 under setting [1] and 0.000268 ± 0.033 under setting [2].
For the sequence UCCUGGAACACGUUGCAUAGUAUUUAGUUA, the “pre-steady-state target cleavage rate” value reads like this: under setting [1], 0.0172 ± 0.0053; under setting [2], 0.000591 ± 0.021.
Take UCCUGGAUCUGCUUGCAUAGUAUUUACUUA: the “pre-steady-state target cleavage rate” value is, setting by setting: under setting [1], 0.00136 ± 0.0038; under setting [2], 0.000323 ± 0.026.
Taken in the same sequence, the figures for UCCUGCUACUGCUUGCAUACUAUUUAGUUA were 0.00669 ± 0.0028 and 0.000866 ± 0.0082.
Taken in the same sequence, the figures for UCCUGGAUGAGCCUGCAUAGUAUUUAGUUA were 0.032 ± 0.011 and 0.00102 ± 0.0098.
With UCCUGGAUCAGCUUCCAUAGUAUUUACUUA, the “pre-steady-state target cleavage rate” value by setting is: under setting [1], 0.000589 ± 0.0079; under setting [2], 0.000187 ± 0.034.
For UCCUGGAUGUGCUUGCAUUGUAUUUAGUUA the same measures were 0.00484 ± 0.0027 and 0.00246 ± 0.005.
Taken in the same sequence, the figures for UCCUGGAUCAGCUUGCAUAGUAUUAACUUA were 0.0015 ± 0.004 and 0.0011 ± 0.0093.
Taken in the same sequence, the figures for UCCUGGUACAGCUUGCAUAGUGUUUAGUUA were 0.00794 ± 0.0028 and 0.00325 ± 0.0051.
UCCUCCUACAGCUUGCAUUGUAUUUUGUUA: the “pre-steady-state target cleavage rate” value reads like this: under setting [1], 0.00442 ± 0.0027; under setting [2], 0.000538 ± 0.013.
For UCCUGCUACAGGUUGCAUAGUAAUUAGUUA the same measures were 0.00595 ± 0.0019 and 0.00123 ± 0.0086.
Taken in the same sequence, the figures for UCCUGGAUGAGCUUGCAUAGUAUUGUAGUUA were 0.00171 ± 0.0039 and 0.00132 ± 0.0096.
Taken in the same sequence, the figures for UCCUGGAUGAGCUUGCAUAGUAUCUUAGUUA were 0.0147 ± 0.005 and 0.00298 ± 0.0043.
With UCCUGGAUGAGCUUUCAUAGUAUUUAGUUA, the “pre-steady-state target cleavage rate” value is, setting by setting: under setting [1], 0.00433 ± 0.0018; under setting [2], 0.000517 ± 0.015.
Taken in the same sequence, the figures for UCCUGGAUGUGCUUGCAUAGUAUGUUAGUUA were 0.00406 ± 0.0038 and 0.000831 ± 0.013.
Taken in the same sequence, the figures for UCCUGCUACAGCAUGCAUUGUAUUUAGUUA were 0.0119 ± 0.0032 and 0.000981 ± 0.0075.
On to UCCUGGAACAGCUUAGCAUAGUAUUUAGUUA, for which the “pre-steady-state target cleavage rate” value by setting is: under setting [1], 0.0218 ± 0.0061; under setting [2], 0.000477 ± 0.018.
Taken in the same sequence, the figures for UCCUGGUACAGCCUGCAUAGUAUUUAGUUA were 0.00984 ± 0.0036 and 0.00106 ± 0.011.
For UCCUGGUACAGCUUGCAUAGUAUUUAGUGUA the same measures were 0.00435 ± 0.0027 and 0.00154 ± 0.0082.
Taken in the same sequence, the figures for UCCUGGAACAGCUUGCAUAGUAUUUCGUUA were 0.0025 ± 0.0013 and 0.000269 ± 0.027.
For UCCUGGUACUAGCUUGCAUAGUAUUUAGUUA, the “pre-steady-state target cleavage rate” value was 0.00885 ± 0.0038 under setting [1] and 0.00189 ± 0.0075 under setting [2].
As for UCCUGGAACAGGUUGCAUAGUAUUUAGUAA, the “pre-steady-state target cleavage rate” value was 0.00828 ± 0.0031 under setting [1] and 0.000789 ± 0.011 under setting [2].
Regarding UCCUGGAUGACCUUGCAUAGUAUUUACAAA, the “pre-steady-state target cleavage rate” value by setting is: under setting [1], 0.00077 ± 0.0055; under setting [2], 0.000751 ± 0.013.
Taken in the same sequence, the figures for UCCUGGAUCAGCUUGCAUAGUAUUAUGUUA were 0.005 ± 0.0024 and 0.00122 ± 0.0088.
As to UCCUGGAUCAGCUUGCAUACUAUUUAGUUA, the “pre-steady-state target cleavage rate” value reads like this: under setting [1], 0.0114 ± 0.0021; under setting [2], 0.00287 ± 0.0038.
As to UCCUGGAUGUGCCUUGCAUAGUAUUUAGUUA, the “pre-steady-state target cleavage rate” value came out at 0.0886 ± 0.031 under setting [1] and 0.00076 ± 0.0091 under setting [2].
Taken in the same sequence, the figures for UCCUGGUACAGCUUGGAUAGUAUUUAGUUA were 0.0049 ± 0.0027 and 0.000262 ± 0.054.
Taken in the same sequence, the figures for UCCUGGUACAGCUUUCAUAGUAUUUAGUUA were 0.00404 ± 0.0023 and 0.000106 ± 0.04.
Taken in the same sequence, the figures for UCCUGGAACAGCUACCAUAGUAUUUAGUUA were 0.00309 ± 0.0026 and 0.000492 ± 0.018.
As for UCCUGCUACAGCUUGCAUAGUAUUUGGUUA, the “pre-steady-state target cleavage rate” value came out at 0.00556 ± 0.0012 under setting [1] and 0.000924 ± 0.0099 under setting [2].
Taken in the same sequence, the figures for UCCUCCUACAGCUAGCAUACUAUUUAGUUA were 0.00634 ± 0.002 and 0.0011 ± 0.0063.
Turning to UCCUGGAUGAGCUUGCAUAGUAUCUAGUUA, the “pre-steady-state target cleavage rate” value by setting is: under setting [1], 0.00844 ± 0.003; under setting [2], 0.00175 ± 0.0068.
For UCCUGCUACAGCUUGCUAGUAUUUAGUUA the same measures were 0.00473 ± 0.0031 and 0.00163 ± 0.005.
Taken in the same sequence, the figures for UCCUGGAACAGCGUUGCAUAGUAUUUAGUUA were 0.0162 ± 0.0046 and 0.00185 ± 0.0057.
Taken in the same sequence, the figures for UCCUGGUACAGCAUGCAUAGUAUUUACUUA were 0.00168 ± 0.0031 and 0.000604 ± 0.015.
Turning to UCCUGGAACAGCUUGCAUAGUAUUUACGUUA, the “pre-steady-state target cleavage rate” value runs as follows: under setting [1], 0.00579 ± 0.0024; under setting [2], 0.00152 ± 0.0093.
For UCCUGGAUGAGCUUGCUUAGUAUUAAGUUA, the “pre-steady-state target cleavage rate” value runs as follows: under setting [1], 0.00314 ± 0.0031; under setting [2], 0.00115 ± 0.0067.
As for UCCUGCUACAGCUUGCAUACUAUUUAGUUA, the “pre-steady-state target cleavage rate” value reads like this: under setting [1], 0.00755 ± 0.0026; under setting [2], 0.000774 ± 0.0072.
Taken in the same sequence, the figures for UCCUGCUACAGCUUGCAUAGUUAUUUAGUUA were 0.00578 ± 0.0032 and 0.000608 ± 0.011.
